Where a name gives a salt, the structure may show the parent alone. This is one part of the list. Single values are uncertain here, since repeats match poorly.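 Screen of FDA-approved drugs, each combined with colistin at one-eighth of its MIC, against a multidrug-resistant mcr-1-positive clinical E. coli isolate; growth read as OD600 after 24 h. Bacteria without drug were the growth control and plain broth the blank. A combination counted as active when OD600 fell below 0.2.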
tested on: Escherichia coli 42 (mcr-1-positive clinical isolate); assay: OD600 after 24 h growth with compound plus colistin (absorbance units (OD600)); higher = more bacterial growth (less inhibition); details: first compound 25 µM; colistin concentration 0.5 ug/mL; incubation time 24 h; 37 °C

OD600, inactive:
CC(C)C[C@H](NC(=O)[C@H](Cc1ccccc1)NC(=O)c1cnccn1)B(O)O [Bortezomib] + CCC(C)CCCC(=O)N[C@@H](CCN)C(=O)N[C@H](C(=O)N[C@@H](CCN)C(=O)N[C@H]1CCNC(=O)[C@H]([C@@H](C)O)NC(=O)[C@H](CCN)NC(=O)[C@H](CCN)NC(=O)[C@H](CC(C)C)NC(=O)[C@@H](CC(C)C)NC(=O)[C@H](CCN)NC1=O)[C@@H](C)O [colistin] 1, Cc1cccc(Nc2ccccc2C(=O)O)c1C [Mefenamic acid] + CCC(C)CCCC(=O)N[C@@H](CCN)C(=O)N[C@H](C(=O)N[C@@H](CCN)C(=O)N[C@H]1CCNC(=O)[C@H]([C@@H](C)O)NC(=O)[C@H](CCN)NC(=O)[C@H](CCN)NC(=O)[C@H](CC(C)C)NC(=O)[C@@H](CC(C)C)NC(=O)[C@H](CCN)NC1=O)[C@@H](C)O [colistin] 1.05, CCCNC(C)C(=O)Nc1ccccc1C (centres undefined) [Prilocaine hydrochloride] + CCC(C)CCCC(=O)N[C@@H](CCN)C(=O)N[C@H](C(=O)N[C@@H](CCN)C(=O)N[C@H]1CCNC(=O)[C@H]([C@@H](C)O)NC(=O)[C@H](CCN)NC(=O)[C@H](CCN)NC(=O)[C@H](CC(C)C)NC(=O)[C@@H](CC(C)C)NC(=O)[C@H](CCN)NC1=O)[C@@H](C)O [colistin] 1.15, O=C(O)C1=C(CSc2nnnn2CS(=O)(=O)O)CS[C@@H]2[C@H](NC(=O)[C@H](O)c3ccccc3)C(=O)N12 [Cefonicid sodium] + CCC(C)CCCC(=O)N[C@@H](CCN)C(=O)N[C@H](C(=O)N[C@@H](CCN)C(=O)N[C@H]1CCNC(=O)[C@H]([C@@H](C)O)NC(=O)[C@H](CCN)NC(=O)[C@H](CCN)NC(=O)[C@H](CC(C)C)NC(=O)[C@@H](CC(C)C)NC(=O)[C@H](CCN)NC1=O)[C@@H](C)O [colistin] 1.02

From the supplement of paper PMC11546906
